Experimental data published in PMC12469775.
Where a chain is given by its changes, count along the chain named. These are yes or no findings as the source states them, for the method shown. In cells and extracts the contact can be indirect. Here binding means that the protein was enriched with, or labelled near, the bait; the list need not be complete. No binding means not detected with the bait. Sequences can lack the tags named with a protein.

Chains of the proteins cited; added tags and fusions are not shown.
UniProt P17844: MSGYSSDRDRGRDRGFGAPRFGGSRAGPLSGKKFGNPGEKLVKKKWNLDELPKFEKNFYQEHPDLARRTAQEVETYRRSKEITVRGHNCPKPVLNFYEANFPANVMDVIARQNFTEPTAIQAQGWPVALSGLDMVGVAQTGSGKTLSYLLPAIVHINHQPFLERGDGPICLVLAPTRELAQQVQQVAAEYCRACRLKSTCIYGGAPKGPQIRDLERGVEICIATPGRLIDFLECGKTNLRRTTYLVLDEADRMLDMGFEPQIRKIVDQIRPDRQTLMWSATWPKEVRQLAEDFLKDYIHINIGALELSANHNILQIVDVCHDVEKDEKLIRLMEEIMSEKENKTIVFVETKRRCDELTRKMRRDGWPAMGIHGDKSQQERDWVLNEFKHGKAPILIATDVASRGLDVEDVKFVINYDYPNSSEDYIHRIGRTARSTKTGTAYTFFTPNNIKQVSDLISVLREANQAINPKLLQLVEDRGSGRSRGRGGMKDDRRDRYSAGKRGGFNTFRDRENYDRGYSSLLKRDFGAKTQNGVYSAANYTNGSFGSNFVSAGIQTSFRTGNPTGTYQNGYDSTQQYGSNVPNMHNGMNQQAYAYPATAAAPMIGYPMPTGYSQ
UniProt Q9UHB6: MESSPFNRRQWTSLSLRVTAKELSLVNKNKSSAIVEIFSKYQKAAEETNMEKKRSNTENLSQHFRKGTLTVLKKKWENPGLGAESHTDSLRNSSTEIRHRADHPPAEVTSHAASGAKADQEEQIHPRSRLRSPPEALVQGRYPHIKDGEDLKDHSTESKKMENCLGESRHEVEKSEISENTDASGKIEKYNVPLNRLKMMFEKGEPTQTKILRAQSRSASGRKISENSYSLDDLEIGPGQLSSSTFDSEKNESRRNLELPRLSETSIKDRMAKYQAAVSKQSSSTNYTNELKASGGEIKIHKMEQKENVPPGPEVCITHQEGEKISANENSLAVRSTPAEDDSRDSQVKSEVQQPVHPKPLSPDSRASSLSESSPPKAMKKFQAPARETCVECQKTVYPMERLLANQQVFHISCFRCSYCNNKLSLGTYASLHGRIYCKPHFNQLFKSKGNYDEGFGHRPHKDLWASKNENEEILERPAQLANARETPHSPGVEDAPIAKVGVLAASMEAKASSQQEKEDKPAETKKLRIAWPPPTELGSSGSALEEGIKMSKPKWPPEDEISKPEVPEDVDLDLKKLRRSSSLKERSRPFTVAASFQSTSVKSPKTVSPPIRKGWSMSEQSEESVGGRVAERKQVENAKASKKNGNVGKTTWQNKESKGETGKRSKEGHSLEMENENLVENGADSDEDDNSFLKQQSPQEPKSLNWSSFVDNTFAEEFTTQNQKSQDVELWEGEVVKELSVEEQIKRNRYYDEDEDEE
UniProt Q9BVA1: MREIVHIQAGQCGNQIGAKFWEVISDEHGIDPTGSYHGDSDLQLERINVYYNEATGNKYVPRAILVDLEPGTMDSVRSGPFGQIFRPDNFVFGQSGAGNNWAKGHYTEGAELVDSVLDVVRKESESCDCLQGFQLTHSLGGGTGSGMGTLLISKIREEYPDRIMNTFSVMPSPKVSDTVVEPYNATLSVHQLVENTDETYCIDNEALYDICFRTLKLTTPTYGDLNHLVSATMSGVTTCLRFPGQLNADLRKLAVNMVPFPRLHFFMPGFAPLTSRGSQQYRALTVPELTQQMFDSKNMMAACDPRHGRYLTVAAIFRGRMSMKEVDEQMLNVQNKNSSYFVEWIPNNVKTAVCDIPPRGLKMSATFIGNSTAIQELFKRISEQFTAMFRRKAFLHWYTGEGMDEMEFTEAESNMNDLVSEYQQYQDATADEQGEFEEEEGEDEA
UniProt Q07065: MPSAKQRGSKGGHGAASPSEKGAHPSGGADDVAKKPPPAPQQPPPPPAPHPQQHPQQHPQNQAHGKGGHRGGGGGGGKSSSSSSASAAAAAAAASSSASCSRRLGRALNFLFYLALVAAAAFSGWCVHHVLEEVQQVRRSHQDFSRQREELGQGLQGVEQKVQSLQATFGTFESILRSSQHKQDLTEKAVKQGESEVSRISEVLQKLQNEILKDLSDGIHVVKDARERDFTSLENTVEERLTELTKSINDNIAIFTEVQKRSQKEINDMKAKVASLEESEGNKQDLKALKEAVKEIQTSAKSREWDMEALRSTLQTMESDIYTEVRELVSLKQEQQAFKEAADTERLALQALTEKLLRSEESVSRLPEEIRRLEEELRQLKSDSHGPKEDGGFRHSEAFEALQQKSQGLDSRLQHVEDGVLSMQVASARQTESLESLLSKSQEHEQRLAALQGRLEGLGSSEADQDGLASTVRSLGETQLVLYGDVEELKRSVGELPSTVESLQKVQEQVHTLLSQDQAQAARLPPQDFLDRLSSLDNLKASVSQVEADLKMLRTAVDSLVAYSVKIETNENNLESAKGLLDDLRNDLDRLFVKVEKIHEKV
UniProt Q92841: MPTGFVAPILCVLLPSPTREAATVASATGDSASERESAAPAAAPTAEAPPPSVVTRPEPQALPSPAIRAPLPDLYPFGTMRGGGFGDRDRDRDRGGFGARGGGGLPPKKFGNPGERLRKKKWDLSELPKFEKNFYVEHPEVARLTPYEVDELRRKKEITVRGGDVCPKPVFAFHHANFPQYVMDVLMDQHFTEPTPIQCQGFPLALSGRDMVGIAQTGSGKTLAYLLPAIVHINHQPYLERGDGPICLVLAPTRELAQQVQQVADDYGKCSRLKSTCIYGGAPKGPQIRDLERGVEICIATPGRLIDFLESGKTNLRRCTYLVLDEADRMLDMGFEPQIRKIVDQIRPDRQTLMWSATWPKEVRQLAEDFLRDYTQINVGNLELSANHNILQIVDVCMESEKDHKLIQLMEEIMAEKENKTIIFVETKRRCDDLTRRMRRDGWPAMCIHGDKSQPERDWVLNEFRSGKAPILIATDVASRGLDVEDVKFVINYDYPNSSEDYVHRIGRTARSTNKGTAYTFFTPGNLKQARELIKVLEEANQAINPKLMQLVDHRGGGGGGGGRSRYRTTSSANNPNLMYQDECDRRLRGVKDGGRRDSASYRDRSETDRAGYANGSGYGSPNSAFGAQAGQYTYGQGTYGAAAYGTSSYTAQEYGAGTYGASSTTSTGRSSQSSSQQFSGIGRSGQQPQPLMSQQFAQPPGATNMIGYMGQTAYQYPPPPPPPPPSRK
UniProt P04792: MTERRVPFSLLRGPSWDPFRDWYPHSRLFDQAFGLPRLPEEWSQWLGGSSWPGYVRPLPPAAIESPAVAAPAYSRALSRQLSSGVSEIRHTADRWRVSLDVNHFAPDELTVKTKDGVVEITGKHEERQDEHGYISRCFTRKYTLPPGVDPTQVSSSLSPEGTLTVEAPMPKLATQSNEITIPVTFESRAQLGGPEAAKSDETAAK
UniProt A5A3E0: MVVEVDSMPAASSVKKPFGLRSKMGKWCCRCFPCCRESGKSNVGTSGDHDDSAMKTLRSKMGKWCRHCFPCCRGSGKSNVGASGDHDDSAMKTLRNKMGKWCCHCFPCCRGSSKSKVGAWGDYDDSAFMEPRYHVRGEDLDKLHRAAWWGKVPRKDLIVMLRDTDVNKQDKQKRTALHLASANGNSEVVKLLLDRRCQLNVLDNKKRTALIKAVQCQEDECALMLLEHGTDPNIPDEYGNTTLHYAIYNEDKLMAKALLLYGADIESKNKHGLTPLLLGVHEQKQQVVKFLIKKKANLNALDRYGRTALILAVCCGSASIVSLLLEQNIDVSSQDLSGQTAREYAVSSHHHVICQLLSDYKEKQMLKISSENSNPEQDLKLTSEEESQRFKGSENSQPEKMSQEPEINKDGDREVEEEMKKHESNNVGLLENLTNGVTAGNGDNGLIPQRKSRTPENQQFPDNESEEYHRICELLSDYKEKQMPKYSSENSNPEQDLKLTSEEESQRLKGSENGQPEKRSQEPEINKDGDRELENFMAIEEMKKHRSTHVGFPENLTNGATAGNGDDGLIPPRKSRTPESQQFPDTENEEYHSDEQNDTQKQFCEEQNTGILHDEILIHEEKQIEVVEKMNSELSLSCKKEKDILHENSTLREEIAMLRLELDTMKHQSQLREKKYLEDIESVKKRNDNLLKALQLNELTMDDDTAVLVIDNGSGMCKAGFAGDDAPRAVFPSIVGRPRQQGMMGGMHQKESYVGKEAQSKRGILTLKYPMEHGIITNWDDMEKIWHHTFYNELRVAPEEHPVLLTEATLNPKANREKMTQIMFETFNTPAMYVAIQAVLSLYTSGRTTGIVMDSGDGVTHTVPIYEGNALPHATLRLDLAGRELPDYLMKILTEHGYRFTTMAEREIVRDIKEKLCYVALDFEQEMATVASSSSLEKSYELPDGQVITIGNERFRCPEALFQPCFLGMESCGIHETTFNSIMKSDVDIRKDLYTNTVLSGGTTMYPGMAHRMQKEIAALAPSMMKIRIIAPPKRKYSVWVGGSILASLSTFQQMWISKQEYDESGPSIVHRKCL
UniProt P0CG38: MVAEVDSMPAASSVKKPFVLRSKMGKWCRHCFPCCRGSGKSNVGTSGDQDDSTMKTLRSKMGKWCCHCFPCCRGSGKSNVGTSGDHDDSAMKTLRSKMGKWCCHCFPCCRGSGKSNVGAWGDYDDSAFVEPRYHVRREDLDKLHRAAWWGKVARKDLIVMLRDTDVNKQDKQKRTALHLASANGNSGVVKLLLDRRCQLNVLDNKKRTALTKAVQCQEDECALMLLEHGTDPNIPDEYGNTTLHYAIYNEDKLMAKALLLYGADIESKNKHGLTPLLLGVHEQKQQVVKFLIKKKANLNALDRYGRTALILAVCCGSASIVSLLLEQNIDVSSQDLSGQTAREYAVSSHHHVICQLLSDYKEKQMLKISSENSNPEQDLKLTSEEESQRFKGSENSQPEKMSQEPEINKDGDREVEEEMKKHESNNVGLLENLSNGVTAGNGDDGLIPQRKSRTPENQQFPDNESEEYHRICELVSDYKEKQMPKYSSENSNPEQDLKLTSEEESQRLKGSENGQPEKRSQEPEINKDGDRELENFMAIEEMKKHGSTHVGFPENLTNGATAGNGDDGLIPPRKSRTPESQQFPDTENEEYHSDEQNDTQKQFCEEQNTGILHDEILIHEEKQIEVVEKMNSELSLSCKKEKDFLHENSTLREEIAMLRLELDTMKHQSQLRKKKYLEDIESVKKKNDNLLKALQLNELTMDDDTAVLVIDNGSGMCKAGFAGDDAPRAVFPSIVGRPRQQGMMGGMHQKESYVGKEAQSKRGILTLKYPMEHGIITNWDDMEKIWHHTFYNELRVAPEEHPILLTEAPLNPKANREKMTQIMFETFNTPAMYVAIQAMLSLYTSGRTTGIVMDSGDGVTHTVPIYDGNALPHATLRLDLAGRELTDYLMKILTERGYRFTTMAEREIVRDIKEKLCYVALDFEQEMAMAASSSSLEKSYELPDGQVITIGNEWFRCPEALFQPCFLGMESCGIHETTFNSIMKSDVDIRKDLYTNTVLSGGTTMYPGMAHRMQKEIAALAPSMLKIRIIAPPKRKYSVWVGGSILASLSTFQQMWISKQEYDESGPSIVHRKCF
UniProt Q13885: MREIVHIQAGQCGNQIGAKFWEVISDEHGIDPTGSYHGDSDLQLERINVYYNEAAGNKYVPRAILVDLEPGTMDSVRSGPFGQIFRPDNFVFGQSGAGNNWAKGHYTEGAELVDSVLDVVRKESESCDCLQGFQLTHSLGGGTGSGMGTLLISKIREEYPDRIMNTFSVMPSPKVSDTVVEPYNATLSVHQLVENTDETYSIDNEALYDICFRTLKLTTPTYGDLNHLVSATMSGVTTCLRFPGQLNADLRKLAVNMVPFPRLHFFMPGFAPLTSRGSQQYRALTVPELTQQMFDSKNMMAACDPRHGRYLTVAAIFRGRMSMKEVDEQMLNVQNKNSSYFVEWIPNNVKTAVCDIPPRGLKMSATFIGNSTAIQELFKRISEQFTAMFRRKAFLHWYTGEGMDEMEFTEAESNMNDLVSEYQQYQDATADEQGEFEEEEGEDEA

Assays:
Assay in all cases: affinity purification with mass spectrometry; anti-HA monoclonal antibody covalently coupled to magnetic beads (Pierce Direct Magnetic IP/Co-IP Kit); 1 mg total lysate of human chondrocytes transfected with HA-tagged wild-type WISP3, p.Tyr109* or p.Cys114Trp; binding at room temperature; eluates analysed by label-free nanoLC-MS/MS (DIA); two biological replicates per condition
[1] = target: T1, WNT1-inducible signaling pathway protein 3 (WISP3), wild-type, HA-tagged (human) (UniProt O95389)
T1 sequence: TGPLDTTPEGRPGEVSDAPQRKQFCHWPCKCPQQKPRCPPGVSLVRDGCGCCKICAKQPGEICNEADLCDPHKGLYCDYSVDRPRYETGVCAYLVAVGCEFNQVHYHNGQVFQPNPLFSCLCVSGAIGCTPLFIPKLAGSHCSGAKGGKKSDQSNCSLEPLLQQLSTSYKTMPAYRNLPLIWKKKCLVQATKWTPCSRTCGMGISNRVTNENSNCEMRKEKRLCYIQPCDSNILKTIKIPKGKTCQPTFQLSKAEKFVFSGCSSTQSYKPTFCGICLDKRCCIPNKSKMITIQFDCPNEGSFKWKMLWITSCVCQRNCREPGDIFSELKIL

[2] = target: T2, WISP3 p.Cys114Trp variant, HA-tagged (human) (UniProt O95389)
T2 sequence: T1 sequence with C91W

[3] = target: T3, WISP3 p.Tyr109* variant, HA-tagged (truncated product of about 14 kDa) (human) (UniProt O95389)
T3 sequence: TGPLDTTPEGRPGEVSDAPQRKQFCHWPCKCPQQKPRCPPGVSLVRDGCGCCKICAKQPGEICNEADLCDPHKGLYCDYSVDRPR

binding [1] | binding [2] | binding [3] | Substance
binds | binds | binds | ACTBM (from UniProt Q9BYX7 1-375)
no binding | binds | no binding | DDX5 (from UniProt P17844 1-614)
binds | no binding | no binding | LIMA1 (from UniProt Q9UHB6 1-759)
binds | binds | binds | TUBB1A (human (endogenous in human chondrocytes))
binds | binds | binds | TUBB2B (from UniProt Q9BVA1 1-445)

Second part, the substance before the results:

Substance | binding [1] | binding [2] | binding [3]
CKAP4 (from UniProt Q07065 1-602) | binds | binds | –
DDX17 (from UniProt Q92841 1-729) | no binding | binds | no binding
HSPB1 (from UniProt P04792 1-205) | – | binds | –
POTEF (from UniProt A5A3E0 1-1075) | binds | binds | binds
POTEI (from UniProt P0CG38 1-1075) | binds | binds | binds
TUBB2A (from UniProt Q13885 1-445) | binds | binds | binds
